Our source for the binding values is article PMC3820547.

No constants are given. Whether binding was seen depends on the method and setting. In cells and extracts the contact can be indirect. Binding can be weak; no strength is given.

The assay concerns the target histidine-tagged Pab0431 (Pyrococcus abyssi). Kind of assay: pull-down; 5 ug histidine-tagged Pab0431 on Co2+ magnetic beads incubated with 16.5 mg P. abyssi cell extract 2 h at 4°C; PCNA revealed by anti-PCNA blot; only the target purified.

B1: PCNA, endogenous in the P. abyssi extract (protein, UniProt Q9UYX8 1-249)
chain: MPFEIVFEGAKEFAQLIETASRLIDEAAFKVTEEGISMRAMDPSRVVLIDLNLPASIFSKYEVDGEETIGVNMDHLKKVLKRGKAKETLILRKGEENFLEISLQGTATRTFKLPLIDVEEIEVDLPELPFTAKVVILGDVIKEAVKDASLVSDSMKFIAKENEFTMRAEGETQEVEVKLTLEDEGLLDIEVQEETKSAYGISYLSDMVKGLGKADEVTIKFGNEMPMQMEYYIRDEGRLIFLLAPRVEE
With B1, the binding result is listed as “binds”.
